Data published in paper PMC5111407.
No constants are given. Whether binding was seen depends on the method and setting. In cells and extracts the contact can be indirect. Binding calls can cover weak binding; strength is not graded here.

B1: Rpd31-3HA (enzyme, UniProt Q5ADP0 1-577)
chain: MYTELPFDELKVDPNQKKRIAYFYDADIGNYAYGAGHPMKPHRIRMAHSLIMNYGLYKKMEIYRAKPATKQEMCQFHTDEYIDFISRVNPDNLDLFTKEQIKFNVGDDCPVFDGLFEYCGISGGGSMEGAARLNRGKCDIAINYAGGLHHAKKSEASGFCYLNDIVLGIIELLRYHPRVLYIDIDVHHGDGVEEAFYTTDRVMTCSFHKYGEFFPGTGELRDIGVGKGKYHSVNVPLRDGIDDATYKSVFEPVISKIIEWYQPSAIVLQCGGDSLSGDRLGCFNLSMNGHANCINYVKSFNIPMMVVGGGGYTMRNVARTWAYESGLLNNVKLPDELPYNEYYEYYGPDYKLDVRSSNMFNQNSPEFLDKILTNIIANLENTKHAPSVQMNEVPNDPEDLGDVEEDTAMAIDTKGGSEMSRDAQIQPDNEFYEDDEKDKGEKAIIDNKHEDQDSMQVDKSEEPVVEQKDKPQDENNVTGDNIEEDQPQEVNPIEEQPSVEKSVVVVEDKLEEVKPVEQKVEEPKEVVDKPEDKHEDKPAETLTETTTESKPEDQPMEDAAKLTEEELKEIEELNKSS
B2: Rpd31-T2-3HA (domain or fragment, UniProt Q5ADP0 1-417)
chain: MYTELPFDELKVDPNQKKRIAYFYDADIGNYAYGAGHPMKPHRIRMAHSLIMNYGLYKKMEIYRAKPATKQEMCQFHTDEYIDFISRVNPDNLDLFTKEQIKFNVGDDCPVFDGLFEYCGISGGGSMEGAARLNRGKCDIAINYAGGLHHAKKSEASGFCYLNDIVLGIIELLRYHPRVLYIDIDVHHGDGVEEAFYTTDRVMTCSFHKYGEFFPGTGELRDIGVGKGKYHSVNVPLRDGIDDATYKSVFEPVISKIIEWYQPSAIVLQCGGDSLSGDRLGCFNLSMNGHANCINYVKSFNIPMMVVGGGGYTMRNVARTWAYESGLLNNVKLPDELPYNEYYEYYGPDYKLDVRSSNMFNQNSPEFLDKILTNIIANLENTKHAPSVQMNEVPNDPEDLGDVEEDTAMAIDTKGGS

Target: Rco1-9myc (Candida albicans)
Experiment: co-IP; whole-cell extracts of strains coexpressing Rco1-9myc and a 3HA-tagged Rpd3, Rpd31 or Rpd31-T2 precipitated with anti-myc antibody, immunoblotted with anti-HA and anti-myc

| Binder | binding |
| --- | --- |
| B1 | binds |
| B2 | no binding |
